Results as given in PMC12819664.
Results are given in words; binding and its absence hold for the method and conditions named. In cells and extracts the contact can be indirect. These calls come from enrichment with a bait or labelling near it, and not all partners need be listed.

Amino acid sequences for entries named in this document (tags omitted). Residues count along the entry.
UniProt O43895, residues 22-649: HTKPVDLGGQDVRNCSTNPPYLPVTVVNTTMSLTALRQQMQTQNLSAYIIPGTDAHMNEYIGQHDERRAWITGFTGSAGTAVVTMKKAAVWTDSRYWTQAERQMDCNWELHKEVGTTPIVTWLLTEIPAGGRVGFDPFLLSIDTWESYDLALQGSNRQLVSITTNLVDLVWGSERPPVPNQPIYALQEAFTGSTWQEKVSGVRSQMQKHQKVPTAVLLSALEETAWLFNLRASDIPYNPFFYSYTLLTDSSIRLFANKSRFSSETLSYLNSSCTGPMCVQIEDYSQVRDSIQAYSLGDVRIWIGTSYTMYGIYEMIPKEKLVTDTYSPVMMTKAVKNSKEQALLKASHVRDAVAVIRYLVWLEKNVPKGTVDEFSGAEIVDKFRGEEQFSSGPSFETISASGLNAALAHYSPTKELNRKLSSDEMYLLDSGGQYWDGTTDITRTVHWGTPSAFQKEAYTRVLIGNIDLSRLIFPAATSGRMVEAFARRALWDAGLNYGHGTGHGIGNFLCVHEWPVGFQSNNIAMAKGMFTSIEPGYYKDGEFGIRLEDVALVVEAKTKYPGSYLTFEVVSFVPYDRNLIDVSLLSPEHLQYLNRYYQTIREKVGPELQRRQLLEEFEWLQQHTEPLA

Molecular target: HA-tagged X-prolyl aminopeptidase 2 (XPNPEP2) (UniProt O43895)
Assay: affinity purification with mass spectrometry; immunoprecipitates enriched with HA-tagged XPNPEP2, analysed by liquid chromatography-tandem mass spectrometry; cells not given

binding: binds
B1: SLC25A6 (protein, UniProt P12236 1-298)
chain: MTEQAISFAKDFLAGGIAAAISKTAVAPIERVKLLLQVQHASKQIAADKQYKGIVDCIVRIPKEQGVLSFWRGNLANVIRYFPTQALNFAFKDKYKQIFLGGVDKHTQFWRYFAGNLASGGAAGATSLCFVYPLDFARTRLAADVGKSGTEREFRGLGDCLVKITKSDGIRGLYQGFSVSVQGIIIYRAAYFGVYDTAKGMLPDPKNTHIVVSWMIAQTVTAVAGVVSYPFDTVRRRMMMQSGRKGADIMYTGTVDCWRKIFRDEGGKAFFKGAWSNVLRGMGGAFVLVLYDELKKVI
